According to patent publication US20260207767A1:
No constants are given. Whether binding was seen depends on the method and setting. Some binding calls cover weakened binding; strength is not graded here.

Each binder was assayed against recombinant cynoPD-1 (construct not stated) (cynomolgus monkey) (UniProt B0LAJ3) (assay: ELISA, SPR).

binding | Binder
binds | XVT458-z2-m1 (antibody, V domains shown) VH: QVQLVQSGAEVKKPGASVKVSCKASGYTFTNFYIHWVRQAPGQGLEWMGSIYPNYGFTAYNQKFKDRVTMTVDTSTSTAYMELRSLRSDDTAVYYCARGYSYAMDYWGQGTTVTVSS VL: DIQMTQSPSSVSASVGDRVTITCSASQGIWGDLNWYQQKPGKAPKLLIYHTSQLHSDVPSRFSGSGSGTDFTLTISSLQPEDFATYYCQGYSKDLLTFGGGTKLEIK
binds | XVT458-z2-m4 (antibody, V domains shown) VH: QVQLVQSGAEVKKPGASVKVSCKASGYTFTNFYIHWVRQAPGQGLEWMGRIYPNYGITAYNQKFKDRVTMTVDTSTSTAYMELRSLRSDDTAVYYCARGYSYAMDYWGQGTTVTVSS VL: DIQMTQSPSSVSASVGDRVTITCSASQGISGDLNWYQQKPGKAPKLLIYHTSSRHSGVPSRFSGSGSGTDFTLTISSLQPEDFATYYCQGYSKDLLTFGGGTKLEIK
binds | XVT458-z2-m5 (antibody, V domains shown) VH: QVQLVQSGAEVKKPGASVKVSCKASGYTFTNFYIHWVRQAPGQGLEWMGRIYPNYGITAYNQKFKDRVTMTVDTSTSTAYMELRSLRSDDTAVYYCARGYSYAMDYWGQGTTVTVSS VL: DIQMTQSPSSVSASVGDRVTITCSASQGIYGDLNWYQQKPGKAPKLLIYHTSSRHSGVPSRFSGSGSGTDFTLTISSLQPEDFATYYCQAYSKDLLTFGGGTKLEIK
binds | XVT458-z2-m6 (antibody, V domains shown) VH: QVQLVQSGAEVKKPGASVKVSCKASGYTFTNFYIHWVRQAPGQGLEWMGSIYPNYGITAYNQKFKDRVTMTVDTSTSTAYMELRSLRSDDTAVYYCARGYSYAMDYWGQGTTVTVSS VL: DIQMTQSPSSVSASVGDRVTITCSASQGISGDLNWYQQKPGKAPKLLIYHTSQLHSDVPSRFSGSGSGTDFTLTISSLQPEDFATYYCQGYSKDLLTFGGGTKLEIK
binds | XVT458-z2-m2 (antibody, V domains shown) VH: QVQLVQSGAEVKKPGASVKVSCKASGYTFTNFYIHWVRQAPGQGLEWMGRIYPNYGFTAYNQKFKDRVTMTVDTSTSTAYMELRSLRSDDTAVYYCARGYSYAMDYWGQGTTVTVSS VL: DIQMTQSPSSVSASVGDRVTITCSASQGIYGDLNWYQQKPGKAPKLLIYHTSSLHSGVPSRFSGSGSGTDFTLTISSLQPEDFATYYCQAYSKDLLTFGGGTKLEIK
binds | XVT458-z2-m3 (antibody, V domains shown) VH: QVQLVQSGAEVKKPGASVKVSCKASGYTFTNFYIHWVRQAPGQGLEWMGRIYPNYGITAYNQKFKDRVTMTVDTSTSTAYMELRSLRSDDTAVYYCARGYSYAMDYWGQGTTVTVSS VL: DIQMTQSPSSVSASVGDRVTITCSASQGISGDLNWYQQKPGKAPKLLIYHTSQRHSDVPSRFSGSGSGTDFTLTISSLQPEDFATYYCQGYSKDLLTFGGGTKLEIK
